{
  "source": "patent US7238682B1",
  "about": "“Methods and compositions for degradation and/or inhibition of HER-family tyrosine kinases” (Sloan-Kettering Institute for Cancer Research, priority 1999, dated 2007)",
  "key": {"HER2": {"test_system": "HER2", "assay": "Immunofluorescence staining of HER2 in MCF-7 cells", "format": "cell-based, human", "settings": "compared with DMSO control"}, "IGF-I receptor": {"test_system": "IGF-I receptor", "assay": "IGF-I receptor level in MCF-7 cells (immunoprecipitation and immunoblotting)", "format": "cell-based, human", "settings": "1 μM, 3 to 24 hours"}, "IGF-IR": {"test_system": "IGF-IR", "assay": "Immunofluorescence staining of IGF-IR in MCF-7 cells", "format": "cell-based, human", "settings": "compared with DMSO control"}, "32D cells": {"test_system": "32D cells", "assay": "Growth of 32D hematopoietic cells lacking HER-kinases (cell counting)", "format": "cell-based, murine", "settings": "various concentrations, cells counted every day for three days, FIG. 3"}, "Raf-1 [1]": {"test_system": "Raf-1", "assay": "Induction of Raf-1 degradation in MCF-7 cells (immunoblotting)", "format": "cell-based, human", "settings": "1 μM, 3 to 24 hours", "description": "The human breast cancer cell lines MCF-7 and SKBR-3 were obtained from ATCC (Rockville, Md.), and maintained in DME/F12 (1:1) supplemented with 10% heat-inactivated fetal bovine serum (Gemini Bioproducts), 2 mM glutamine, and 50 units/ml each of penicillin and streptomycin, in a humidified 5% CO2/air atmosphere at 37° C.\nPolyclonal antibodies against HER2 (c-18), Raf-1 (c-12), and P13 kinase (p85) (Z-8) were purchased from Santa Cruz Biotechnology, Inc. A monoclonal antibody against estrogen receptor (clone H-151) was obtained from StressGen Biotechnology Corp. A polyclonal antibody against the β-subunit of IGF-I receptor was kindly provided by Dr. L-H, Wang (Mt. Sinai Medical Center, New York).\nAfter exposure, cells were washed twice with ice-cold phosphate-buffered saline (PBS), collected by scraping and transferred into microcentrifuge tubes. […] Protein concentration in each sample was determined using the BCA kit (Pierce) according to the manufacture's instructions. […] Samples were subjected to SDS-PAGE, electrotransferred to nitrocellulose membranes, detected using the ECL kit (Amersham) according to the manufacturer's protocol, and quantitated using the Gel Doc 1000 (Bio-Rad)."}, "HER-2 and Raf-1": {"test_system": "HER-2 and Raf-1", "assay": "Varying treatment patterns (concentration and frequency) and amount of HER-2 and Raf-1", "format": "cell-based", "settings": "0.25, 0.5 and 1 μM; single or repeated treatments at 0, 3, 6, 12 hours"}, "Raf-1 [2]": {"test_system": "Raf-1", "assay": "Immunofluorescence staining of Raf-1 in MCF-7 cells", "format": "cell-based, human", "settings": "compared with DMSO control"}},
  "note": "At least one compound was matched to its structure with a doubt left.",
  "data": [
    {"smiles": "COC1=C2C[C@@H](C)C[C@H](OC)[C@H](O)[C@@H](C)/C=C(\\C)[C@H](OC(N)=O)[C@@H](OC)/C=C\\C=C(/C)C(=O)NC(=CC1=O)C2=O", "note": "[GM, Geldanamycin, reference compound]", "values": [
      {"measurement": "Anti-HER2 antibody staining (immunofluorescence)", "setting": "HER2", "result": "reduced staining"},
      {"measurement": "IGF-I receptor expression over time", "setting": "IGF-I receptor", "result": "more slowly"},
      {"measurement": "Anti-IGF-IR antibody staining (immunofluorescence)", "setting": "IGF-IR", "result": "reduced staining"},
      {"measurement": "Effect on growth of 32D cells", "setting": "32D cells", "result": "potent inhibitor"},
      {"measurement": "Effect on growth of 32D cells", "setting": "32D cells; listed as geldanamycin", "result": "very toxic"},
      {"measurement": "Raf-1 expression over time", "setting": "Raf-1 [1]", "result": "causes the degradation over time"},
      {"measurement": "Amount of HER-2 and Raf-1 as a function of the treatment pattern", "setting": "HER-2 and Raf-1", "result": "No significant differences"},
      {"measurement": "Anti-Raf-1 antibody staining (immunofluorescence)", "setting": "Raf-1 [2]", "result": "reduced staining"}
    ]}
  ]
}
